Measured values taken from PubChem BioAssay AID2685 (National Center for Advancing Translational Sciences (NCATS), 2010).
The whole screen tested about 320,000 compounds, of which about 2,100 (0.66%) were called active. The shares of active, inactive and inconclusive entries below differ from those in the screen. Calls come from the whole dose curve; as a rule, active = well fitted inhibition curve with a large enough effect in the signal ratio, with a control signal flat (not every such curve was filed as active); inconclusive = small, poorly fitted or top-dose-only effect, or effect the other way, or a change in a side signal; inactive = flat fitted curve, though single readings scatter; the % refers to the signal ratio. A potency beside an inconclusive call is a rough fit, not a confirmed value.

Experiment: qHTS Assay for Lipid Storage Modulators in Drosophila S3 Cells
Settings: BODIPY lipid droplet fluorescence, 18-24 h, cells fed with added oleic acid; lipid storage change, negative = inhibition: at 46.1 µM (top of the series) unless noted
How it was run: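 Drosophila S3 cells loaded with oleic acid (400 uM, as added) and compounds at several concentrations; lipid droplets imaged by 488-nm laser-scanning cytometry, 500–530 nm intensity and object ratio to cell channel. Percent activity normalized to 20 uM Triacsin C.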
% is set by controls: 0 for no effect and ±100 for the full control effect; potency is the fitted concentration of half-maximal effect.

Lipid storage change, negative = inhibition, inconclusive:
Cc1nc(NN)nc(NCc2ccccc2)n1 -18.1%
O=C(Oc1ccccc1F)c1ccc2c(=O)n3c(nc2c1)CCC3
CCOC(=O)N1CCN(CC(=O)Nc2nc3ccccc3s2)CC1 -22.2%
Cc1ccc(S(=O)(=O)N2CCCC2)cc1C(=O)N1CCN(Cc2ccccc2)CC1 -37.4%
N#Cc1nc(-c2cccs2)oc1NCC1CCCO1 (centres undefined) 36.1%
O=C(CCl)Nc1cc2[nH]c(=O)[nH]c2cc1Br -5.97%
NC1=NC2(CCCC2)N=C(Nc2ccccc2)N1 12.3%
COCCCn1cnnc1SCC(=O)Nc1ccc(S(=O)(=O)N2CCCC2)cc1 8.38%
Cc1c(OCC(=O)N[C@@H](Cc2c[nH]c3ccccc23)C(=O)O)ccc2c1oc(=O)c1ccccc12 1.36%
CC(=O)N1CCCC(C(=O)c2ccc(Oc3ccccc3)cc2)C1 (centres undefined) -36%
Cc1cc(C(=O)C(C)OC(=O)c2ccc(NC(=O)CC#N)cc2)c(C)n1-c1ccc(OC(F)F)cc1 (centres undefined) -27.2%
Clc1cccc(Cl)c1CSc1nnc(/C=C/c2ccccc2)o1 89.9%
Cc1ccc(OCC(=O)Nc2ccc(S(=O)(=O)Nc3ccccn3)cc2)cc1C 66.8%
O=C(NNC(=O)c1c(F)cccc1F)c1sccc1-n1cccc1 8.67%
O=C(COC(=O)c1ccc(NS(=O)(=O)c2ccc3c(c2)OCCO3)cc1)NC1CC1 12%
O=C(CCCN1C(=O)c2ccccc2C1=O)NCCc1ccc(OC(F)F)cc1 18.5%
Cc1cc(C)cc(NC(=S)NCc2cccs2)c1 10.7%
O=C(Cc1ccc(F)cc1)N1CCOCC1 2.7%
CCCCC(=O)NC(c1ccc(N(CC)CC)cc1)c1ccc2cccnc2c1O (centres undefined) -70.5%
O=C(NNC1=NS(=O)(=O)c2ccccc21)c1ccc(Cl)cc1 26.8%
Oc1ccc(/C=N/N2CCN(C3c4ccccc4-c4ccccc43)CC2)c(O)c1 12.2%
COc1cccc2c(=O)cc(C)n(CC(=O)Nc3ccc(Br)cc3)c12 -4.1%
COc1cc(C)c(CN2CCCCC2CO)cc1C (centres undefined) -5.56%
CCOc1ncccc1C(=O)NCc1ccc(C)cc1 4.34%
CC(=O)N1CCCc2cc(S(=O)(=O)N3CCC(C)CC3)ccc21 -1.38%
CCOc1ccc(-c2cc(C(=O)NN=C3CCN(C)CC3)[nH]n2)cc1 -13.4%
O=C(N/N=C/c1cccs1)c1cnccn1 14.2%
Cn1c(N)c(C(=O)COC(=O)c2cc(C(F)(F)F)nc3ccccc23)c(=O)n(C)c1=O 25%
CC12CCC(=O)N1C(C(=O)Nc1ccc(Cl)c(Cl)c1)CS2 (centres undefined)
CC1(C)Cc2c(sc3c2c(=O)n(-c2cccc(Cl)c2)c(=O)n3CC(N)=O)CO1 -13.6%
Cc1cc(C(=O)COC(=O)c2cc(Cl)c(O)c(Cl)c2)c(C)n1C 19.9%
CC1CCCCN1C(=O)COC(=O)C1CCN(S(=O)(=O)c2ccc(Cl)c(C(F)(F)F)c2)CC1 (centres undefined) -2.68%
O=C(NCCc1ccc(F)cc1)c1ccc(S(=O)(=O)N2CCCC2)cc1 10.9%
COc1ccc(C(=O)Nc2ccccc2C(=O)N/N=C/c2ccccn2)cc1OC -20.6%
COc1ccc2nc(/C=N/NC(=O)CCNC(=O)OC(C)(C)C)ccc2c1 -26%
Cc1nn(CC(=O)NCCCN2CCCCC2C)c(=O)c2cccn12 (centres undefined) 0.129%
CC1CCCCC1NC(=O)CCS(=O)(=O)c1cc2c(cc1Cl)NC(=O)CO2 (centres undefined) 16.2%
Cc1ccc(NS(=O)(=O)c2ccc(C(=O)N3CCC3)cc2)cc1
CC(=O)Nc1ccc(NC(=O)c2oc3cc(C)c(C)cc3c2C)cc1 68%
Cc1ccc(-c2nc(CS(=O)(=O)CC(=O)N3CCN(C)CC3)c(C)o2)cc1 40.3%
O=C(NC(=O)c1ccc(Cl)cc1)Nc1ccc(-c2cnco2)cc1 17.2%
Cc1ccc(CNC(=O)c2cn(C)c(=O)c3c2c2ccccc2n3C)o1 270%
C=C(C)CC1Nc2ccccc2NC1CC(=C)C (centres undefined) 27.2%
CCCn1nc(Oc2nc(SC)nc(N(C)C)n2)ccc1=O 12.1%
CCc1cccc(OCC(=O)Nc2ccc(C)c(S(=O)(=O)N3CCCCCC3)c2)c1 -10.5%
Cc1noc(C)c1S(=O)(=O)N1CCC(C(=O)Nc2ccc(Br)cc2)CC1 -3.91%
O=C(COC(=O)Cc1ccc(Cl)cc1)Nc1ccc(OC(F)F)cc1 21.6%
O=C(Cn1ncc2c3ccccc3n(Cc3ccccc3)c2c1=O)NCCN1CCOCC1 11%
Cc1cccc(CSCCNC(=O)c2ccc(CN3CCOCC3)cc2)c1 -33.6%
Cc1nc2ccc(NC(=O)c3ccco3)cc2nc1C -25% [at 9.22 µM]
COc1ccc(-c2oc3cccnc3c2C#CC2(O)CCCCC2)cc1 -34%
CCCN(CC#CC(O)(c1ccccc1)c1cccnc1)CCC (centres undefined) 16.1%
O=C(COC(=O)COc1ccc(Cl)cc1)NC1CC1 -1.05%
CCN(CC)C1CCN(C(=O)c2ccc(OC3CCN(CCc4ccccc4)CC3)cc2)C1 (centres undefined) -109%
CCN1C(=S)SC(=O)C1=C1C=C(C)N(CCOC)C(C)=C1 15.9%

Compounds above that have an aryl thioether with sulfur outside any ring (3):
Lipid storage change, negative = inhibition, inconclusive:
COCCCn1cnnc1SCC(=O)Nc1ccc(S(=O)(=O)N2CCCC2)cc1 8.38%
Clc1cccc(Cl)c1CSc1nnc(/C=C/c2ccccc2)o1 89.9%
CCCn1nc(Oc2nc(SC)nc(N(C)C)n2)ccc1=O 12.1%

3 compounds out of the list, arranged by molar mass, rising.
Lipid storage change, negative = inhibition, inconclusive:
COc1ccc(C(=O)Nc2ccccc2C(=O)N/N=C/c2ccccn2)cc1OC -20.6%
Cc1ccc(S(=O)(=O)N2CCCC2)cc1C(=O)N1CCN(Cc2ccccc2)CC1 -37.4%
O=C(Cn1ncc2c3ccccc3n(Cc3ccccc3)c2c1=O)NCCN1CCOCC1 11%

Next part.

Lipid storage change, negative = inhibition, inactive:
C#CCN(C(=O)c1ccc(OC)c(OC2CCN(C(C)C)CC2)c1)C1CCCCC1 14.3%

Potency, inconclusive:
O=S(=O)(NCC1CCCO1)c1cccc2nsnc12 (centres undefined) 11.6 µM [falling, partial curve, poor fit]
COc1ccc(OCCCC(=O)OC(C)C(=O)Nc2ccc(S(N)(=O)=O)cc2)cc1 (centres undefined) 2.59 µM [falling, single point]
O=[N+]([O-])/C(C(Cl)=C(Cl)Cl)=C(\Sc1ccccc1)N1CCCCC1 4.61 µM [falling, single point]
O=C(CCc1nc2ccccc2c(=O)[nH]1)N1CCN(S(=O)(=O)c2cccc(F)c2)CC1 0.103 µM [falling, full curve, poor fit]
Cc1ccccc1OC(C)C(=O)Nc1ccc(S(=O)(=O)Nc2nccs2)cc1 (centres undefined) 0.0046 µM [activator, full curve, poor fit]
C=CCn1c(C)cc(C(=O)CSc2ccc(NC(C)=O)cc2)c1C 0.13 µM [falling, full curve, poor fit]
Clc1cccc(Cl)c1Cn1ccc(C2CC2)n1 3.66 µM [activator, single point]
O=C(CN(C(=O)CSc1nnc(COc2ccccc2)o1)c1ccc(F)cc1)NC1CCCCC1 4.11 µM [rising, full curve]
CCN(CC(=O)Nc1ccccc1-c1ccccc1)Cc1nc2ccccc2c(=O)[nH]1 1.16 µM [activator, single point]
O=C(COc1cc(Cl)c(Cl)cc1Cl)N1CCN(c2ccccn2)CC1 25.9 µM [activator, single point]
COc1ccccc1NC(=O)CSc1ccc2nnc(CCNC(=O)c3ccccc3)n2n1 29.1 µM [falling, single point]
CC1CCCCN1C(=O)C1CCCN(S(=O)(=O)c2cccc3nsnc23)C1 (centres undefined) 29.1 µM [falling, single point]
CC(C)CN(CC(C)C)CC(O)COc1ccc([N+](=O)[O-])cc1 (centres undefined) 16.4 µM [falling, partial curve, poor fit]
O=C(Nc1ccccc1Cl)N1CCN(c2ccc3nncn3n2)CC1 6.51 µM [falling, single point]
S=C(NCCc1ccccn1)Nc1ccc(Cl)cc1 8.2 µM [activator, partial curve, poor fit]
CCOC(=O)Cc1csc(NC(=O)c2c(O)c3c(n(CC(C)C)c2=O)CCCC3)n1 0.092 µM [falling, full curve, poor fit]
O=C(NC1CC1)C1CCN(S(=O)(=O)c2ccc(Cl)cc2)CC1 1.16 µM [falling, single point]
O=C(CC1C(=O)NCCN1C1CCCC1)NCc1cccc(OC(F)(F)F)c1 (centres undefined) 0.58 µM [activator, single point]
CCn1c(SCC(=O)N/N=C/c2ccc(O)c(OC)c2)nc2ccccc21 20.6 µM [activator, single point]
COc1ccccc1N1CCN(C(=O)CCCC2=NS(=O)(=O)c3ccccc3N2)CC1 13 µM [activator, partial curve, poor fit]
c1nc(NC2CCCCC2)c2[nH]cnc2n1 9.2 µM [rising, partial curve]

Potency, active:
CC(C)(C)NC(=O)CN(C(=O)CCN1CCCc2ccccc21)C(C)(C)C 14.6 µM

outcome, inactive:
O=S(=O)(Nc1cccc(-n2cnnn2)c1)c1ccccc1 inactive [at 46.1 µM]
